## Percent effect of library compounds

By UniProt entry, the sequences of proteins in these tests, tags left out. Residues count along the entry.
UniProt A4I591, 1-473: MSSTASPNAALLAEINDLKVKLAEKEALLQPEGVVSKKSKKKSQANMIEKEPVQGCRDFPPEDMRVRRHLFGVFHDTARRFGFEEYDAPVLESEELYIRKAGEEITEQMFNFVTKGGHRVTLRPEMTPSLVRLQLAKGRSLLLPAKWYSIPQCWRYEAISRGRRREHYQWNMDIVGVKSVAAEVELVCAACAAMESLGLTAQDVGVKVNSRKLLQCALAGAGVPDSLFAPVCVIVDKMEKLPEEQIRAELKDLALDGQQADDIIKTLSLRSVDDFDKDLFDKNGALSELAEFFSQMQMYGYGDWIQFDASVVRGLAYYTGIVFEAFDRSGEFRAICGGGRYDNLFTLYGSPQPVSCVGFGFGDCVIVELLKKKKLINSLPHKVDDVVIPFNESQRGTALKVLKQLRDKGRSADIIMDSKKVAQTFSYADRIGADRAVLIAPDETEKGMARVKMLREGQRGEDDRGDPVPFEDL

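Histidine-tRNA ligase, Leishmania infantum (UniProt A4I591). Enzyme assay of histidyl-tRNA synthetase; the read-out is not stated. Concentration: 30 µM. The record gives no direction; compounds that gave an IC50 in retests scored well above the rest, so higher reads as stronger inhibition. The assay is labelled LdHisRS but filed under L. infantum. Of about 69,000 compounds tested this way, about 410 (0.6%) reached 50% or more in at least one test.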

Values are the deposited “Percent Effect”, in %.
The controls that fix the scale are not given in the record; negative values are as filed.
The compounds are a random part of those screened.

| SMILES | percent effect |
|---|---|
| `Cn1cnc2c1CCN(Cc1csc(-c3ccsc3)n1)C2` | 42.55 |
| `CN(C)CCCNC(=O)C(c1cccc(F)c1)N(C)C` (stereo not given) | 16.8 |
| `CCOCC1COCCC12CCN(C(=O)CS(C)(=O)=O)CC2` (stereo not given) | 13.79 |
| `COc1cc(F)ccc1-c1cc(N)ccn1` | 16.67 |
| `Cc1cc(C(=O)N(C)C2CCS(=O)(=O)C2)c2ccc(F)cc2n1` (stereo not given) | 10.85 |
| `Cc1nnc(NCc2cccc(OCc3ccccn3)c2)c(C#N)c1C` | 10.87 |
| `COC(=O)CN1N=C(C(=O)N2CCCC2)S(=O)(=O)c2ccccc21` | 12.17 |
| `Cn1ccc2c(-c3nccc(N)n3)ccnc21` | 16 |
| `CNc1nc2c(s1)C(=O)CN(C(=O)[C@@H](N)Cc1cccc(OC)c1)C2` | 20 |
| `CN(C)C(=O)N1CCc2ccc(=O)[nH]c2CC1` | 10.92 |
| `COc1cc(C2(C(=O)NC3CCN(CC4CC4)CC3)CC2)ccc1C` | 14.53 |
| `Cc1ccc(N2CC[C@H](O)[C@@H]2Cc2cnn(C)c2)nn1` | 11.93 |
| `CCc1c(-c2ccccc2)nc2c(c(C)c(C)n2CCN(C)C)c1N` | 21.35 |
| `CC(C)n1nc2c(cc1=O)CN(Cc1nc(-c3ccoc3)no1)CC2` | -8 |
| `COc1ccc(C(=O)N2CCCC(CNS(C)(=O)=O)C2)cc1F` (stereo not given) | 14.29 |
| `CC(C)c1nc(C2CCCN(C(=O)c3ccc4[nH]nnc4c3)C2)no1` (stereo not given) | 20.35 |
| `O=C(c1cccs1)N1CCN(C(=O)c2ncoc2-c2ccco2)CC1` | 21.05 |
| `CC(=O)NCc1nnc2n1CCN(c1ncnc3c1CCC3)CC2` | -5.051 |
| `Cn1ccnc1CCNC(=O)NCCC1CCCCO1` (stereo not given) | 10.83 |
| `Cc1nnc(NC(=O)N2CCC(N3CCCCC3)CC2)s1` | 14 |
| `CCOCC(=O)N1CCc2nc(C)nc(NC(C)C)c2CC1` | -6.364 |
| `CN1CCC(NCC2(O)CCCN(Cc3ccccc3F)C2=O)CC1` (stereo not given) | 18.18 |
| `COCc1ccccc1C(=O)N1CCC(CNC(=O)OC(C)(C)C)C1` (stereo not given) | 3.125 |
| `COCC(=O)N1CCCC1c1ccc(C(=O)NCc2ccccc2Cl)s1` (stereo not given) | 20.41 |
| `COCCC(Cc1cccc(Br)c1)C(=O)O` (stereo not given) | 12.09 |
| `Cc1cc(CN(C)C(=O)NC2CCCN(c3ncccn3)C2)no1` (stereo not given) | 23.2 |
| `CC(C)CCn1ccc(NC(=O)N2CCCC2C(C)(C)O)n1` (stereo not given) | 3.125 |
| `CCCNC(=O)c1nn(CC)cc1NC(=O)c1c(C)nn(C)c1C` | 19.35 |
| `CNC(=O)C(C)(C)N1CCC[C@H]1C(=O)NCCN(C)C` | 22.22 |
| `Cc1ccc(N2CCN(C(=O)COc3ncccn3)CC2)nn1` | -2.778 |
| `COc1cc(N2CCC3(CCCN(C(=O)c4cnccn4)C3)C2)ncn1` (stereo not given) | -0.885 |
| `Cn1cc(Br)c(=O)c(NS(=O)(=O)c2ccc3c(c2)CCC3)c1` | 6.122 |
| `Cc1nccn1-c1ccc(NS(=O)(=O)c2cccnc2)cn1` | 33.73 |
| `COc1ccc(F)c(CN2CCCC3(CCN(S(C)(=O)=O)C3)C2)c1` (stereo not given) | 20.55 |
| `Cn1cc(C2CCCN2C(=O)CCCOCc2ccccc2)cn1` (stereo not given) | -16.85 |
| `Cc1noc(C)c1CN1C[C@@H]2COC[C@@H](C(=O)N3CCCO3)[C@@H]2C1` | 16 |
| `CN1CCCC1CNC(=O)CCCOc1ccc(I)cc1` (stereo not given) | 26.79 |
| `O=C(CC1CC1)N1CCC2(CC1)CN(c1cccnc1)C(=O)CO2` | 2.727 |
| `CN1CCN(c2ncccn2)CC(C(=O)N(C)C)C1` (stereo not given) | 15.71 |
| `Cc1cc(CN(C)CC(c2cccs2)N2CCOCC2)on1` (stereo not given) | 14.55 |
| `Cn1ccc(C(=O)N2CCOC(c3ccccc3)C2)cc1=O` (stereo not given) | 12.82 |
| `O=C1NC2(Nc3ncccc31)C(=O)Nc1c2ccc(Cl)c1F` (stereo not given) | 12.82 |
| `CN1CCC(N(CCc2ccccc2)C(=O)COCC2CCCO2)CC1` (stereo not given) | 17.33 |
| `O=C(N[C@H]1CC[C@H](O)CC1)c1ccc2nc(-c3ccccc3)cn2c1` | 11.83 |
| `CC(C)c1n[nH]c(C2CN(CCCS(C)(=O)=O)CCO2)n1` (stereo not given) | 2.609 |
| `CC(C(=O)NC1CC1)S(=O)(=O)c1cc2c(cc1Cl)OCCO2` (stereo not given) | 7.895 |
| `CC(C)(C)c1nc(CN2CCN(C(=O)c3cnccn3)CC2)cs1` | 22.02 |
| `CNC(=O)CN1CC[C@H]2CN(C(=O)c3ccc(C)cc3)C[C@H]2C1` | 9.722 |
| `Cc1nc(SC2CCN(c3sccc3C#N)C2=O)oc1C` (stereo not given) | 34.69 |
| `Cc1noc(C(C)N2CCN(Cc3ccco3)CC2)n1` (stereo not given) | 13.16 |
| `CC1=N[C@@]2(CC[C@@H]3CN(C(=O)NCC(C)C)C[C@@H]32)C(=O)N1CC(C)C` | 22.22 |
| `CN(CCN1CCOC1=O)CC(=O)Nc1ccc(Cl)c(C(F)(F)F)c1` | 18.42 |
| `COc1cc(C)c2c(c1C)C[C@@H](C(C)C(=O)O)CC2` (stereo not given in full) | 5.747 |
| `Cc1cc(CN2CCc3nc(C(C)C)nc(O)c3CC2)c(C)s1` | 9.859 |
| `O=C(CCn1cncn1)NC1CCc2nccn2C1` (stereo not given) | 4.464 |
| `Cc1cncc(C(=O)N2CCCCC2c2nc[nH]n2)c1` (stereo not given) | 10.96 |
| `COCc1noc(Cn2ncn3cccc3c2=O)n1` | 28.36 |
| `Cc1ncc(CC(=O)N2C[C@@H]3CC[C@H](C2)N(CC2CCC2)C3)c(=O)[nH]1` | 16.39 |
| `N#Cc1ccc(S(=O)(=O)Nc2ccc(N3CCOCC3)cn2)cc1` | 22.37 |
| `Cc1noc(C)c1C(=O)N1CCCC1(C)C(=O)NC1CCCC1` (stereo not given) | 11.27 |
| `CC(NC(=O)Nc1cccnc1N1CCOCC1)c1ccccc1` (stereo not given) | 13.33 |
| `CC(C)(C)CC(=O)NCCn1ccc(-c2ccncc2)n1` | 7.692 |
| `O=C1CCCC2=C1C(c1ccc(F)cc1F)Nc1nonc1N2` (stereo not given) | 14.58 |
| `Cc1ccc(CNC(=O)c2nn(C)c3c2CS(=O)(=O)CC3)o1` | 15.52 |
| `COC(CNC(=O)N1CCC(n2cncn2)CC1)c1ccccc1` (stereo not given) | 5.405 |
| `O=C(Nc1cnn(-c2ccccc2Cl)c1)N[C@@H]1C=C[C@H](CO)C1` | 16.88 |
| `COc1cccc(-c2nccnc2C2CCN(C(C)=O)CC2)c1` | 19.44 |
| `CC(C)(C)C(=O)N1CCCC1c1cc(CO)[nH]n1` (stereo not given) | 2.797 |
| `Cc1noc(C2CCN(Cc3cc(=O)n(C)c(=O)n3C)CC2)n1` | 17.57 |
| `CCCc1nc(CNCC2CCCN2c2cccnn2)cs1` (stereo not given) | 30.36 |
| `CNC(=O)CN(C)c1nc(-c2ccc(C(N)=O)cc2)nc2c1CCNC2` | 8.392 |
| `Cc1ccc(C(=O)Cc2c(Cl)nc3n(C)c(=O)n(C)c(=O)n23)cc1` | 16.48 |
| `COc1ccc(C(C)NCc2ccsc2)cc1Cn1cccn1` (stereo not given) | 15.71 |
| `O=C(c1cccn2ccnc12)N1CCCN(c2cccnn2)CC1` | 5.333 |
| `Cc1oc(C(=O)O)cc1S(=O)(=O)Nc1cc(F)ccc1F` | 3.478 |

Measurements from “University of Dundee, Small-Polar-MMV Screening Library” (2021), ChEMBL document CHEMBL3988442.